{"source": "PubChem BioAssay AID595", "about": "(National Center for Advancing Translational Sciences (NCATS), 2007)", "note": "Screen size: about 71,000 compounds; about 310 (0.44%) were called active. The shares of active, inactive and inconclusive entries below differ from those in the screen. Calls come from the whole dose curve; as a rule, active = well fitted curve in either direction with a large enough effect; inconclusive = small, poorly fitted or top-dose-only effect, or another doubt; inactive = flat fitted curve, though single readings scatter. Potencies beside an inconclusive call are fits to weak or partial responses and may not hold up. % is set by controls: 0 for no effect and ±100 for the full control effect; potency is the fitted concentration of half-maximal effect.", "data": [{"system": "Hsp90 C-terminal peptide / TPR2A (Hop) interaction, human", "assay": "qHTS Assay for Disrupters of an Hsp90 Co-Chaperone Interaction", "settings": "AlphaScreen TPR2A-His6 binding biotin-Hsp90 C-terminal peptide; activity change, negative = inhibition: at 57 µM (top of the series) unless noted", "excerpt": "NIH Chemical Genomics Center [NCGC]\nNIH Molecular Libraries Screening Centers Network [MLSCN]\nHsp90 (heat shock protein 90) is the essential molecular chaperone and it accounts for 1-2% of all cytosolic proteins and is critical for the activity of diverse cellular proteins that are involved in a variety of cellular processes, including development, cell cycle, and steroid hormone signaling. Its client proteins include signaling kinases such as IGF1R, Akt, v-Src, Raf-1; regulators of cell survival such as Bcr-Abl; and transcription factors such as mutated p53, estrogen and progesterone receptors. Hsp90 has emerged as an important target for cancer treatment due to its essential role in maintaining transformation and regulating the function of oncogenic signaling proteins.\nThe in vivo function of Hsp90 is regulated by the binding and hydrolysis of ATP at its N-terminal. Geldanamycin binds to ATP site and inhibit Hsp90 function. Geldanamycin and its analogues are under clinical trials in cancer patients.\nThis domain contains the binding site for tetratricopeptide repeat (TPR) domains on HOP (Hsp Organizing Protein). TPR is a structural motif used by a significant number of cochaperones by which the in vivo function of Hsp90 is regulated. TPR2A on HOP binds specifically to MEEVD motif of the C-terminal of Hsp90.\nA homogeneous AlphaScreen is developed to assess the interaction between TPR2A and MEEVD motif of the C-terminal of Hsp90 by using the isolated TPR2A domain and a synthesized 20mer Hsp90 C terminal peptide. AlphaScreen is two bead-based proximity-dependent chemical energy transfer luminescent assay platform. TPR2A-His-6 and biotinylated Hsp90 C terminal peptide will bring streptavidin donor beads and nickel chelate acceptor beads to a proximity range (less than 200 nm), and subsequently lead a chemical luminescent reaction upon exciting donor beads with 680 nm laser. Inhibition of TPR2A and MEEVD motif interaction by small molecules could attenuate or abolish this chemical luminescent reaction.\nCounter screening: Biotinylated-His-6 (PerkinElmer) can be utilized as a counter screen, as it serves as a linker to bring streptavidin beads and nickel chelate beads together. The counter screen can exclude alpha screen platform false positives due to small molecules being metal chelators, biotin analogues and imidazole analogues, or due to interfering with oxygen release from donor beads. Such an assay should be utilized to qualify any activity observed in this screen.\nNCGC Assay Protocol Summary:\nThe assay was performed on 1536-well white plate (untreated solid bottom). Liquids were dispensed by 1536-well plate washer (Kalypsys, San Diego, CA). Plates were read on EnVision (PerkinElmer, Boston, MA).TPR2A-His6 was produced using a bacteria expression system and purified using a well developed method (Ghosh et al., 2000). Hsp90 C terminal 20-mer peptide with or without an N-terminal biotin group are synthesized using automated solid phase synthesis by the Yale Keck facility. The composition of assay buffer was (in mM) 25 HEPES, 100 KCl, 2 MgCl2 and 2 DTT; 0.1% BSA and 0.01% Tween-20. TPR2A-His6 binding to biotin-Hsp90 will bring streptavidin donor beads and nickel chelate acceptor beads (PerkinElmer) together and can be measured by Alpha reading by EnVision (PerkinElmer). Free Hsp90 blocks biotin-Hsp90 binding to TPR2 and serves as a positive control in the current asssay.\nThe assay was performed at room temperature. All compounds were screened as titrations from […] to 46 uM final concentration. The assay was performed in 1536-well format plates (untreated white solid bottom, Corning Inc.) as follows:\nSequence,Parameter,Value,Description\n1,Reagent,3 uL TPR2A-His6,Final concentration was 5nM\n2,Compound,23 nL,Final titration was from 0.7 nM to 46 uM\n3,Time,15 minutes,Room temperature\n4,Reagent,1 uL biotin-Hsp90,With and without free Hsp90. Final concentration was 10 nM for biotin-Hsp90 and 10uM for free Hsp90.\n5,Time,1 hour,Room temperature\n[…]", "values": [{"smiles": "CCCC[C@@H]1C[C@H]1C(NC(=O)c1cccs1)c1ccc(Cl)cc1", "note": "(stereo partly specified)", "Potency": "inconclusive: 20 µM [activator, partial curve]"}, {"smiles": "O=C(NC[C@@H](O)CO)c1c(I)c(C(=O)NC[C@@H](O)CO)c(I)c(N(CCO)C(=O)CO)c1I", "activity change, negative = inhibition": "inconclusive: 66.4% [at 26 µM]"}, {"smiles": "O=C(O)c1cc(-c2ccccn2)n[nH]1", "Potency": "inconclusive: 39.8 µM [inhibitor, single point]"}, {"smiles": "COCCNC(=O)CSc1ccc(C)cc1", "activity change, negative = inhibition": "inactive: -4.36% [at 11 µM]"}, {"smiles": "Cn1cccc1C(=O)N1CCC2(CC1)CN(c1cccc(-c3ccccc3)c1)C2", "Potency": "inconclusive: 25.1 µM [inhibitor, partial curve]"}, {"smiles": "C/C=C\\C(=O)N(CC)c1ccccc1C", "activity change, negative = inhibition": "inconclusive: 72.6% [at 26 µM]"}, {"smiles": "CCNc1nc(NC(C)C)nc(Nn2cnnc2)n1", "activity change, negative = inhibition": "inactive"}, {"smiles": "Cc1cccc(-c2c3c(=O)n(C)c(=O)n(C)c3cn2CCO)c1", "activity change, negative = inhibition": "inconclusive: 46.2%"}, {"smiles": "O=C(Nc1ccc(Cl)cc1)c1ccncc1", "activity change, negative = inhibition": "inconclusive: 42.6%"}, {"smiles": "CCCCSc1nn[nH]n1", "activity change, negative = inhibition": "inconclusive: 56.8%"}, {"smiles": "O=C(CCN1c2ccccc2Sc2ccccc21)OCc1nnc(-c2ccccc2)o1", "activity change, negative = inhibition": "inconclusive: 66.9%"}, {"smiles": "O=C(Nc1ccccc1C(=O)Nc1ccccc1C(=O)NCc1ccco1)c1ccco1", "activity change, negative = inhibition": "inconclusive: 37.9%"}, {"smiles": "Nn1c(COc2cccc(Br)c2)nnc1SCC(=O)N1CCc2ccccc2C1", "activity change, negative = inhibition": "inconclusive: 30.7%"}, {"smiles": "O=C1C(Cl)=C(N2CCCCC2)C(=O)N1c1ccccc1", "Potency": "inconclusive: 25.1 µM [activator, single point]"}, {"smiles": "CC(=O)Nc1nc(CC(C)C)cc(-c2ccco2)c1C#N", "activity change, negative = inhibition": "inconclusive: 48.3%"}, {"smiles": "CCOC(=O)c1cccc(NC(=O)CSc2nnc(-c3ccncc3)n2CCCOC)c1", "activity change, negative = inhibition": "inactive"}, {"smiles": "CCC(=O)N1CCc2cc(S(=O)(=O)NC(C(=O)Nc3cccc(C)n3)C(C)C)ccc21", "note": "(stereo unspecified)", "activity change, negative = inhibition": "inconclusive: 54.6%"}, {"smiles": "C[C@H](N)C(=O)OC(C)(C)Cc1ccc(Cl)cc1", "activity change, negative = inhibition": "inactive"}, {"smiles": "CCOC(=O)c1c(NC(C)=O)sc2c(O)cccc12", "activity change, negative = inhibition": "inconclusive: 36.4%"}, {"smiles": "N=c1sccn1CC(=O)Nc1ccc(S(=O)(=O)N2CCOCC2)cc1", "activity change, negative = inhibition": "inactive"}, {"smiles": "CCN(CC)CCCN1C(=O)C(=O)/C(=C(/O)c2ccc(OC)c(Cl)c2)C1c1ccco1", "note": "(stereo unspecified)", "activity change, negative = inhibition": "inconclusive: 52.4%"}, {"smiles": "O=C(O)[C@H](Cc1ccccc1)NC(=O)N1CCOCC1", "activity change, negative = inhibition": "inconclusive: 56.1%"}, {"smiles": "C=CCOC(=O)C(C#N)c1nc2ccccc2nc1N1CCN(c2ccccc2OC)CC1", "note": "(stereo unspecified)", "Potency": "inconclusive: 7.94 µM [inhibitor, partial curve]"}, {"smiles": "O=C(O)CC[C@@H](C(=O)O)N1C(=O)c2ccccc2C1=O", "activity change, negative = inhibition": "inconclusive: 86.3% [at 11 µM]"}, {"smiles": "Cc1nc2ccc(S(=O)(=O)NC(C(=O)NC3CCCC3)C(C)C)cc2s1", "note": "(stereo unspecified)", "activity change, negative = inhibition": "inconclusive: 45.9% [at 2.3 µM]"}, {"smiles": "COc1cc(NC(=O)c2ccc(COCC(F)(F)F)o2)cc(OC)c1OC", "activity change, negative = inhibition": "inconclusive: 34%"}, {"smiles": "O=C1OC(Nc2nc3ccccc3s2)c2ccccc21", "note": "(stereo unspecified)", "activity change, negative = inhibition": "inactive"}, {"smiles": "O=C(CSc1ncc(-c2ccc(F)cc2)n1Cc1ccco1)Nc1ccc2c(c1)OCO2", "Potency": "inconclusive: 25.1 µM [inhibitor, partial curve]"}, {"smiles": "CCOC(=O)c1ccccc1NC(=O)COc1ccccc1", "Potency": "inconclusive: 25.1 µM [activator, single point]"}, {"smiles": "CN1CCN(C(=S)c2ccc(N(C)C)cc2)CC1", "activity change, negative = inhibition": "inactive"}, {"smiles": "O=C(c1cnccn1)N1CCC2(CCN(Cc3cc(C(F)(F)F)cc(C(F)(F)F)c3)CC2)CC1", "activity change, negative = inhibition": "inconclusive: 52.8%"}, {"smiles": "Cc1[nH]n(-c2ccccc2)c(=O)c1/C=N/O", "activity change, negative = inhibition": "inactive"}, {"smiles": "CC(=O)OCC(=O)[C@@]1(O)[C@H](C)C[C@@H]2[C@H]3CCC4=CC(=O)C=C[C@]4(C)[C@]3(F)[C@@H](O)C[C@@]21C", "activity change, negative = inhibition": "inactive"}, {"smiles": "O=C(COC(=O)c1ccccc1F)c1ccc(-n2nncc2-c2ccco2)cc1", "activity change, negative = inhibition": "inactive"}, {"smiles": "O=C(COC(=O)CCC(=O)Nc1nccs1)NCc1ccco1", "activity change, negative = inhibition": "inconclusive: 66.6%"}, {"smiles": "O=c1[nH]c2ccc(S(=O)(=O)N3CCN(C4CCCCC4)CC3)cc2[nH]c1=O", "activity change, negative = inhibition": "inconclusive: 54.9%"}, {"smiles": "Clc1cccc(-c2cc3nc4c(c(N5CCOCC5)n3n2)CCCC4)c1", "Potency": "inconclusive: 25.1 µM [activator, single point]"}, {"smiles": "COc1ccc(-n2c(=O)c(-c3cccs3)nc3cnc(N(C)C)nc32)cc1", "activity change, negative = inhibition": "inconclusive: 115%"}, {"smiles": "O=C(CN1CCCCCC1)Nc1cccc2c1OCO2", "activity change, negative = inhibition": "inconclusive: 49.2%"}, {"smiles": "C[C@@H](C(=O)N[C@@H](CO)Cc1ccccc1)[C@@H]1C[C@@]1(C)[C@@H](NC(=O)OCc1ccccc1)c1ccccc1", "activity change, negative = inhibition": "inactive"}, {"smiles": "Cc1cc(NS(=O)(=O)c2ccc(NC(=O)c3ccoc3C)cc2)nc(C)n1", "activity change, negative = inhibition": "inconclusive: 41.5%"}, {"smiles": "O=C(CCc1ccc(O)cc1)c1c(O)cc(O)cc1O[C@@H]1O[C@@H](CO)[C@@H](O)[C@@H](O)[C@H]1O", "activity change, negative = inhibition": "inconclusive: 63.8%"}, {"smiles": "CCCN1C(=O)/C(=C2\\SC(N3CCCCC3)=NC2=O)c2ccccc21", "Potency": "inconclusive: 15.8 µM [inhibitor, partial curve]"}, {"smiles": "Cc1cccc(CSc2nnc(-c3ccccn3)n2N)c1", "Potency": "inconclusive: 31.6 µM [inhibitor, single point]"}, {"smiles": "Cc1c(Cl)c(S(N)(=O)=O)cc2c1=NC=NS=2(=O)O", "activity change, negative = inhibition": "inactive: -0.667% [at 11 µM]"}, {"smiles": "CN(c1ccccc1C(=O)NCc1ccccn1)S(C)(=O)=O", "Potency": "inconclusive: 31.6 µM [inhibitor, single point]"}, {"smiles": "O=S1(=O)C=C(Sc2nc3cc(Cl)ccc3o2)c2ccccc21", "activity change, negative = inhibition": "inconclusive: 39.2%"}, {"smiles": "CN(C)c1nc(-c2cccnc2)nc2ccccc12", "activity change, negative = inhibition": "inactive"}, {"smiles": "Nc1ccc2nc(-c3ccc(Cl)cc3)[nH]c2c1", "Potency": "inconclusive: 31.6 µM [inhibitor, single point]"}, {"smiles": "O=C(O)CS(=O)c1ccc2c3c(cccc13)C(=O)c1ccccc1-2", "note": "(stereo unspecified)", "Potency": "inconclusive: 3.98 µM [activator, single point]"}, {"smiles": "O=C(NC1CCCCC1)c1cccnc1C(=O)O", "Potency": "inconclusive: 39.8 µM [inhibitor, single point]"}]}]}
